Results taken from patent US8697877B2, “Oxyindole derivatives with motilin receptor agonistic activity” (RaQualia Pharma Inc., priority 2009, dated 2014).
Some of these results come from one statement about several compounds together.

By UniProt entry, the sequences of proteins in these tests, tags left out. Where a name states a change or a piece, a line headed by the entry shows the natural chain unless it says otherwise.
UniProt O43193: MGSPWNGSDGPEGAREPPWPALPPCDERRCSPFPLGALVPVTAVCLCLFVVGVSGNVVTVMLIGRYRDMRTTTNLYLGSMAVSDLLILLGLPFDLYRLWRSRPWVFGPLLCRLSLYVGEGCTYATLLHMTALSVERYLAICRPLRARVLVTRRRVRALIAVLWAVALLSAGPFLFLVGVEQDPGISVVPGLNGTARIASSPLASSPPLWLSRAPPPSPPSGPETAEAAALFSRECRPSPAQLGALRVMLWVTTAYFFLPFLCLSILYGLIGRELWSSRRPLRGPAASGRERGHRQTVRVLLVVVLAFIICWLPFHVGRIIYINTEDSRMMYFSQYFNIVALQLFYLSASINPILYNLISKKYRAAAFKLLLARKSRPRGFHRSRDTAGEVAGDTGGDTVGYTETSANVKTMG

Legend:
[1] = target: T1, human motilin receptor (GPR38) (Homo sapiens, UniProt O43193); experiment: GPR38 (Motilin Receptor) Functional Assay, NFAT-beta-lactamase reporter in CHO-K1 cells; format: cell-based; conditions: read-out: EC50 (agonistic activity) in the functional assay; CHO-K1 cell line stably transfected with NFAT-beta-lactamase reporter and human motilin receptor gene
T1 construct: expressed in transfected cells; host or cells: CHO-K1
Summary of the method: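 CHO-K1 cells stably carrying NFAT-beta-lactamase reporter and human motilin receptor, 8000 cells/well, compound 4.5 h at 37° C. CCF4-AM loaded 2 h at room temperature; fluorescence read at ex 400 nm, em 465/540 nm. Agonist EC50 from sigmoidal dose-response curve.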

[2] = PAMPA (Parallel Artificial Membrane Permeation Assay); format: in vitro ADME; conditions: artificial membrane 4% phosphatidylcholine and 1% stearic acid in dodecane, pH 6.5, 30° C., 2.5 hours

| Structure (SMILES) | EC50 [1] [nM] | effective permeability value (Pe) [2] |
| --- | --- | --- |
| CC1(C)C(=O)N(C2CCN(C(=O)[C@H](CCc3ccccc3)NC(=O)[C@@H]3CCCNC3)CC2)c2ccc(F)cc21 [Example 44, (R)—N—((S)-1-(4-(5-fluoro-3,3-dimethyl-2-oxoindolin-1-yl)piperidin-1-yl)-1-oxo-4-phenylbutan-2-yl)piperidine-3-carboxamide] | ≤ 100 | >= 2.0 cm×10^−6/sec |
| CN[C@H]1CCN(C(=O)N[C@@H](CCc2ccccc2)C(=O)N2CCC(N3C(=O)C(C)(C)c4ccccc43)CC2)C1 [Example 47, (S)—N—((S)-1-(4-(3,3-dimethyl-2-oxoindolin-1-yl)piperidin-1-yl)-1-oxo-4-phenylbutan-2-yl)-3-(methylamino)pyrrolidine-1-carboxamide] | ≤ 100 | >= 2.0 cm×10^−6/sec |
| CC1(C)C(=O)N(C2CCN(C(=O)[C@H](CCc3ccccc3)NC(=O)NC[C@@H]3CCCN3)CC2)c2ccccc21 [Example 48, 1-((S)-1-(4-(3,3-dimethyl-2-oxo-indolin-1-yl)piperidin-1-yl)-1-oxo-4-phenylbutan-2-yl)-3-((S)-pyrrolidin-2-ylmethyl)urea] | ≤ 100 | >= 2.0 cm×10^−6/sec |
| CN(C[C@@H]1CCCN1)C(=O)N[C@@H](CCc1ccccc1)C(=O)N1CCC(N2C(=O)C(C)(C)c3ccccc32)CC1 [Example 50, 3-((S)-1-(4-(3,3-dimethyl-2-oxo-indolin-1-yl)piperidin-1-yl)-1-oxo-4-phenylbutan-2-yl)-1-methyl-1-((S)-pyrrolidin-2-ylmethyl)urea] | ≤ 100 | >= 2.0 cm×10^−6/sec |
| C[C@@H]1CN(C(=O)N[C@@H](CCc2ccccc2)C(=O)N2CCC(N3C(=O)C(C)(C)c4ccccc43)CC2)CCN1 [Example 54, (R)-N-((S)-1-(4-(3,3-dimethyl-2-oxoindolin-1-yl)piperidin-1-yl)-1-oxo-4-phenylbutan-2-yl)-3-methyl-piperazine-1-carboxamide] | ≤ 100 | >= 2.0 cm×10^−6/sec |
| CC1(C)C(=O)N(C2CCN(C(=O)[C@H](CCc3ccccc3)NC(=O)NCCN3CCCC3)CC2)c2ccccc21 [Example 64, (S)-1-(1-(4-(3,3-dimethyl-2-oxo-indolin-1-yl)piperidin-1-yl)-1-oxo-4-phenylbutan-2-yl)-3-(2-(pyrrolidin-1-yl)ethyl)urea] | ≤ 100 | >= 2.0 cm×10^−6/sec |
| CN(C)CCNC(=O)N[C@@H](CCc1ccccc1)C(=O)N1CCC(N2C(=O)C(C)(C)c3ccccc32)CC1 [Example 65, (S)-1-(1-(4-(3,3-dimethyl-2-oxo-indolin-1-yl)piperidin-1-yl)-1-oxo-4-phenylbutan-2-yl)-3-(2-(dimethyl-amino)ethyl)urea] | ≤ 100 | >= 2.0 cm×10^−6/sec |
| CN1CCC[C@H]1CNC(=O)N[C@@H](CCc1ccccc1)C(=O)N1CCC(N2C(=O)C(C)(C)c3ccccc32)CC1 [Example 68, 1-((S)-1-(4-(3,3-dimethyl-2-oxo-indolin-1-yl)piperidin-1-yl)-1-oxo-4-phenylbutan-2-yl)-3-(((S)-1-methylpyrrolidin-2-yl)methyl)urea] | ≤ 100 | >= 2.0 cm×10^−6/sec |
| CN1CCC(C)(NC(=O)N[C@@H](CCc2ccccc2)C(=O)N2CCC(N3C(=O)C(C)(C)c4ccccc43)CC2)CC1 [Example 69, (S)-1-(1-(4-(3,3-dimethyl-2-oxo-indolin-1-yl)piperidin-1-yl)-1-oxo-4-phenylbutan-2-yl)-3-(1,4-dimethylpiperidin-4-yl)urea] | ≤ 100 | >= 2.0 cm×10^−6/sec |
| CN[C@H]1CCN(C(=O)N[C@@H](CCc2ccccc2)C(=O)N2CCC(N3C(=O)C(C)(C)c4cc(F)ccc43)CC2)C1 [Example 70, (S)—N—((S)-1-(4-(5-fluoro-3,3-dimethyl-2-oxoindolin-1-yl)piperidin-1-yl)-1-oxo-4-phenylbutan-2-yl)-3-(methylamino)pyrrolidine-1-carboxamide] | ≤ 100 | >= 2.0 cm×10^−6/sec |
| CC1(C)C(=O)N(C2CCN(C(=O)[C@H](Cc3ccccc3C(F)(F)F)NC(=O)[C@@H]3CCCNC3)CC2)c2ccccc21 [Example 85, (R)-N-((S)-1-(4-(3,3-dimethyl-2-oxoindolin-1-yl)piperidin-1-yl)-1-oxo-3-(2-(trifluoromethyl)phenyl)propan-2-yl) piperidine-3-carboxamide] | ≤ 100 | >= 2.0 cm×10^−6/sec |
| CN[C@H]1CCN(C(=O)N[C@@H](Cc2ccccc2C(F)(F)F)C(=O)N2CCC(N3C(=O)C(C)(C)c4ccccc43)CC2)C1 [Example 92, (S)-N-((S)-1-(4-(3,3-dimethyl-2-oxoindolin-1-yl)piperidin-1-yl)-1-oxo-3-(2-(trifluoromethyl)phenyl)propan-2-yl)-3-(methylamino)pyrrolidine-1-carboxamide] | ≤ 100 | >= 2.0 cm×10^−6/sec |
| CN[C@H]1CCN(C(=O)N[C@@H](Cc2ccccc2Cl)C(=O)N2CCC(N3C(=O)C(C)(C)c4ccccc43)CC2)C1 [Example 93, (S)-N-((S)-3-(2-chloro-phenyl)-1-(4-(3,3-dimethyl-2-oxoindolin-1-yl)piperidin-1-yl)-1-oxopropan-2-yl)-3-(methylamino)pyrrolidine-1-carboxamide] | ≤ 100 | >= 2.0 cm×10^−6/sec |
| CN[C@H]1CCN(C(=O)N[C@@H](Cc2ccc(Cl)cc2)C(=O)N2CCC(N3C(=O)C(C)(C)c4ccccc43)CC2)C1 [Example 94, (S)-N-((S)-3-(4-chloro-phenyl)-1-(4-(3,3-dimethyl-2-oxoindolin-1-yl)piperidin-1-yl)-1-oxopropan-2-yl)-3-(methylamino)pyrrolidine-1-carboxamide] | ≤ 100 | >= 2.0 cm×10^−6/sec |
